The whole screen tested about 390,000 compounds, of which about 4,000 (1%) were called active. Inconclusive means that the source gave no clear call. Such entries were picked first, then a sample of the others. The call rests on the fitted dose curve; in most records, active means well fitted inhibition curve with a large enough effect; inconclusive means small, poorly fitted or top-dose-only effect, or another doubt; inactive means no such curve, though single readings can be large or run the other way. A potency beside an inconclusive call is a rough fit, not a confirmed value.
Molecular target: DNA polymerase iota (Homo sapiens) (UniProt Q9UNA4)
Assay: qHTS for Inhibitors of Polymerase Iota
Settings: Pol iota fluorescent replication assay, 10 min; series mostly up to 115 µM
How it was run: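 Fluorescent replication assay read twice, at 0 min and 10 min after adding 50 nM (final) substrate. Enzyme (10 nM) and compounds were first incubated 15 min at room temperature; enzyme-free buffer wells were negative controls.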
Potency means the concentration at half of the fitted maximal effect.

The chains behind the UniProt entries cited, without tags or fusion partners. Where a name states a change or a piece, a line headed by the entry shows the natural chain unless it says otherwise.
UniProt Q9UNA4: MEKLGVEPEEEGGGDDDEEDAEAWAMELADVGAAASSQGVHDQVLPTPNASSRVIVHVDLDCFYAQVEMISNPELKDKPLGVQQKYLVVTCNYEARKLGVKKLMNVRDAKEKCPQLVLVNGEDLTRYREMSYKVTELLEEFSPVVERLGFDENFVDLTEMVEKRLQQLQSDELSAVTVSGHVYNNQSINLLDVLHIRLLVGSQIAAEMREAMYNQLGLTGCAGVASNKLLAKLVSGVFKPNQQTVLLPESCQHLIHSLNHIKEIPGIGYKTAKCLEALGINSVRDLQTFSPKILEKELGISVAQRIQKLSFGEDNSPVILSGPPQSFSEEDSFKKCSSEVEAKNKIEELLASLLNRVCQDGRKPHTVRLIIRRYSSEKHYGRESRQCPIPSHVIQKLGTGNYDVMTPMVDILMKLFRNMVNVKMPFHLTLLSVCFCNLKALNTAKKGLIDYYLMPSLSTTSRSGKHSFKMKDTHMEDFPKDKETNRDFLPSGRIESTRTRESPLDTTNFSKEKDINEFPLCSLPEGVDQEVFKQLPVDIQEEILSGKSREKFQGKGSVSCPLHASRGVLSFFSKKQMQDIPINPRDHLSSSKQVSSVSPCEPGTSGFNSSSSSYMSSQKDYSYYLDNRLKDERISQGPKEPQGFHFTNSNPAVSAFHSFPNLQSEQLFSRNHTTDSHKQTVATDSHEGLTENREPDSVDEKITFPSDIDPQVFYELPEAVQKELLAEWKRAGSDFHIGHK

| Structure (SMILES) | Potency |
| --- | --- |
| O=C(/C=C/c1cccs1)Nc1sc2c(c1C(=O)O)CCCC2 | active: 14.1 µM |
| c1ccc2c(NCCc3c[nH]c4ccccc34)c3ccccc3nc2c1 | inconclusive: 12.6 µM [inhibitor, partial curve, poor fit] |
| C/C(CC(=O)NCCCN1CCOCC1)=N\NC(=O)COc1ccc(Cl)cc1 | inconclusive: 39.8 µM [inhibitor, single point] |
| CN(CCc1ccccc1)C(=O)c1ccc(NC(=O)Cc2cccc(NC(=O)C3CCN(C(=O)C4CC4)CC3)c2)cc1 | inconclusive: 2.24 µM [inhibitor, partial curve, poor fit] |
| O=C(Nc1ccc([N+](=O)[O-])cc1)C(=O)Nc1cccc(C(=O)O)c1 | inactive |
| COc1ccc2c(/C=C/c3cc[n+](C)cc3)c[nH]c2c1 | inactive |
| Cc1ccc(-c2cc(C(=O)N3CCN(c4ccc(O)cc4)CC3)c3ccccc3n2)cc1 | inconclusive: 39.8 µM [inhibitor, partial curve, poor fit] |
| O=C(O)c1cccc2c1C(=O)c1ccc(-c3ccc(Cl)c(C(F)(F)F)c3)cc1S2(=O)=O | inactive |
| COc1ccc(NC(=O)CSc2cn(CCNC(=O)c3c(F)cccc3F)c3ccccc23)cc1 | inactive |
| COc1cccc(CNn2cnnc2)c1OCc1ccccc1F | inconclusive: 5.62 µM [inhibitor, full curve, poor fit] |
| Cc1coc2c(C)c3oc(=O)c(CCC(=O)N4CCC(C(=O)NCCCC(=O)O)(c5ccccc5)CC4)c(C)c3cc12 | inconclusive: 79.4 µM [inhibitor, partial curve, poor fit] |
| COc1ccc(-c2noc(-c3ccc(NC4CCCC4)c([N+](=O)[O-])c3)n2)cc1OC | inconclusive: 56.2 µM [inhibitor, partial curve, poor fit] |
| Cc1nc2ccccc2nc1OCC(=O)NCc1ccc2c(c1)OCO2 | inconclusive: 39.8 µM [inhibitor, single point] |
| Oc1ccc2ccccc2c1C=Nc1ccccc1-c1nc2ccccc2[nH]1 | inconclusive: 15.8 µM [inhibitor, full curve, poor fit] |
| COc1ccc(/C=N/NC(=O)c2ccc3ccccc3c2)cc1OS(=O)(=O)c1ccc(NC(C)=O)cc1 | inconclusive: 50.1 µM [inhibitor, partial curve, poor fit] |
| COc1ccc(OC(=O)c2ccc(Cl)cc2)c(C(C)=O)c1 | inconclusive: 100 µM [inhibitor, single point] |
| CCCN1C/C(=C/c2ccc3c(c2)OCO3)C(=O)/C(=C/c2ccc3c(c2)OCO3)C1 | inconclusive: 100 µM [inhibitor, partial curve, poor fit] |
| Fc1ccc(C2CCCN2Cc2nc(-c3cnccn3)no2)cc1 (stereo not given) | inconclusive: 89.1 µM [inhibitor, single point] |
| O=[N+]([O-])c1cccc(-c2ccc(C(=S)N3CCOCC3)o2)c1 | inactive |
| CCc1cc2c(SCC(=O)c3cccs3)ncnc2s1 | inconclusive: 39.8 µM [inhibitor, single point] |

Quoted at random: 3 compounds from above.

| Structure (SMILES) | Potency |
| --- | --- |
| O=C(Nc1ccc([N+](=O)[O-])cc1)C(=O)Nc1cccc(C(=O)O)c1 | inactive |
| Oc1ccc2ccccc2c1C=Nc1ccccc1-c1nc2ccccc2[nH]1 | inconclusive: 15.8 µM [inhibitor, full curve, poor fit] |
| C/C(CC(=O)NCCCN1CCOCC1)=N\NC(=O)COc1ccc(Cl)cc1 | inconclusive: 39.8 µM [inhibitor, single point] |

Additional compounds:

| Structure (SMILES) | Potency |
| --- | --- |
| NC(=O)C1=C[C@@H](c2ccc(Br)cc2)C[C@@H](OCCCCO)O1 | inconclusive: 39.8 µM [inhibitor, partial curve, poor fit] |
| C=CCOc1ccc(/C(O)=C2/C(=O)C(=O)N(CCCN3CCOCC3)C2c2ccccc2)cc1 (stereo not given) | inconclusive: 2.82 µM [inhibitor, partial curve, poor fit] |
| N=c1c(S(=O)(=O)c2ccccc2)cc2c(=O)n3ccccc3nc2n1CC1CCCO1 (stereo not given) | inconclusive: 35.5 µM [inhibitor, single point] |
| Oc1ccc(/C=N/Nc2ncnc3c2ncn3Cc2ccccc2)cc1O | active: 2.24 µM |
| Fc1cccc(Cl)c1CNc1ccc(N2CCCC2)cc1 | inactive |
| CSc1ccc(S(=O)(=O)N2CCC(C(=O)Nc3ccc(C(N)=O)cc3)CC2)cc1 | inconclusive: 39.8 µM [inhibitor, partial curve, poor fit] |
| CCN(CC)c1ccc(NC(=O)c2ccccn2)cc1S(=O)(=O)Nc1ccccc1OC | inconclusive: 15.8 µM [inhibitor, partial curve, poor fit] |
| Cc1ccc(C)c(NC(=O)Cn2nnc(C(=O)NCc3cccs3)c2N)c1 | inconclusive: 28.2 µM [inhibitor, partial curve, poor fit] |
| CCCNC(=O)c1ccc2c(c1)nc(C)n2-c1cccc(C)c1 | inconclusive: 79.4 µM [inhibitor, partial curve, poor fit] |
| O=C(O)c1cscn1 | inconclusive: 10 µM [inhibitor, partial curve, poor fit] |
| O=C(Nc1cccnc1)c1ccc([N+](=O)[O-])s1 | inconclusive: 50.1 µM [inhibitor, partial curve, poor fit] |
| O=C(CN1C(=O)NC(Cc2c[nH]c3ccccc23)C1=O)Nc1ccc(F)cc1F (stereo not given) | inactive |
| O=C(Nc1ccc(Cl)cc1)N1CCC(CN2CCCCCC2)CC1 | inactive |
| CCOc1ccc(N=C(C)c2ccccc2O)cc1 | inconclusive: 100 µM [inhibitor, single point] |
| N#Cc1c(-c2ccco2)nc(SCc2ccc(F)cc2)[nH]c1=O | inconclusive: 28.2 µM [inhibitor, single point] |
| O=C(Nc1cccnc1)C1(F)C(F)(F)C(F)(F)C(F)(F)C(F)(F)C1(F)F | inconclusive: 28.2 µM [inhibitor, single point] |
| CN(CC(=O)Nc1ccccc1Cl)C(=O)COC(=O)c1cc([N+](=O)[O-])ccc1N1CCOCC1 | inconclusive: 63.1 µM [inhibitor, partial curve, poor fit] |
| COc1ccc(NC(=O)Cn2cc(C(=O)c3ccncc3)c(=O)c3cc(C)ccc32)cc1Cl | inconclusive: 89.1 µM [inhibitor, single point] |
| Cc1ccc(C(=O)C[n+]2cccc3cccc(O)c32)cc1 | inactive |
| CCOC(=O)C1CCN(S(=O)(=O)c2ccc(NC(=O)OC)cc2)CC1 | inconclusive: 39.8 µM [inhibitor, partial curve, poor fit] |

Reference: PubChem BioAssay AID588590 (National Center for Advancing Translational Sciences (NCATS), 2011)
